# Reference: PubChem BioAssay (NCATS)
# Inconclusive means that the source gave no clear call. Such entries were picked first, then a sample of the others. Activity calls are given as the source filed them. Calls follow the shape of the dose curve; as a rule, active = well fitted curve in either direction with a large enough effect (not every such curve was filed as active); inconclusive = small, poorly fitted or top-dose-only effect, or another doubt; inactive = flat fitted curve, though single readings scatter.
# Assay: Stat Signaling Pathway (AID 446);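 also: ME-180 cervical cancer cells given 40 pM IL-6 alongside compound; SIE-controlled beta-lactamase reporter measured as 460/530 nm FRET emission ratio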
# Details: ME-180 SIE beta-lactamase reporter, IL-6 stimulated, 5 h; at 7.69 µM (top of the series) unless noted
# How it was run: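 Screening format detects activators and inhibitors alike: ME-180 SIE-bla cells stimulated at 40 pM IL-6 for 5 hrs with compound, then dual-emission beta-lactamase read at 405 nm excitation.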
# % is scaled to controls: 0 for no effect and ±100 for the full control effect.
row,SMILES,"activity, negative = inhibition"
1,C(=N\n1cnnc1)/c1cccc(Oc2ccccc2)c1,inactive: -17.8% [at 17.2 µM]
2,OC[C@@H]1CCC[C@H](n2cnc3c(=S)nc[nH]c32)O1,inconclusive: 6.54% [activator]
3,CC(C)Cn1cnc2c(c1=O)c1nc3ccccc3nc1n2Cc1ccc2c(c1)OCO2,inactive: -6.69% [at 17.2 µM]
4,CC(=O)N1CCC2(CC1)CN(c1cccc(-c3ccccc3)c1)C2,inactive: 1.02%
